Laboratory results from patent publication US20140239906A1, “REDOX-ACTIVE LIGAND-BASED TRANSITION METAL COMPLEX FLOW BATTERIES” (Sandia Corporation, priority 2013, published 2014).

Assay: Static cell (H-cell) galvanostatic charge-discharge cycling
Conditions: 20 mM in acetonitrile, 0.1 M [TBA][PF6]

For `CC[N+](CC)(CC)CC.CC[N+](CC)(CC)CC.N#CC([S-])=C([S-])C#N.N#CC([S-])=C([S-])C#N.N#CC([S-])=C([S-])C#N.[V+4]` [1b], which “decrease of capacity during charge cycles” value (from cycle 2 to cycle 16) is on record?
The value was ~20%.

What about the “electrochemical yield (faradaic efficiency) of charge cycles, initial” value (initially) of the same molecule?
The value was ~45%.

What about the coulombic efficiency (stabilizes by cycle 5) of the same molecule?
Its coulombic efficiency is ~90%.
